Values of other authors in patent US20110269825A1, “Modified Thromboxane A2 Receptor Promoter Sequence” (priority 2008, published 2011).
At least one compound was matched to its structure with a doubt left.

Assays:
[1] = system: Prm3; settings: cited from earlier work
[2] = system: Prm1; settings: cited from earlier work

## CN(CCOc1ccc(CC2SC(=O)NC2=O)cc1)c1ccccn1 (stereo not shown) [rosiglitazone]
[1]
  Effect on transcriptional activity of Prm3: selectively suppressed Prm3 activity
[2]
  Effect on Prm1: without affecting Prm1

## Cc1c(C)c2c(c(C)c1O)CCC(C)(COc1ccc(CC3SC(=O)NC3=O)cc1)O2 (stereo not shown) [troglitazone]
[1]
  Effect on transcriptional activity of Prm3: selectively suppressed Prm3 activity
[2]
  Effect on Prm1: without affecting Prm1
